Hit rate of the full screen: of about 320,000 compounds, about 22,000 (6.9%) were called active. The inconclusive results got no clear call from the source; some entries with a clear call stand among them for comparison. Calls follow the shape of the dose curve; as a rule, active = well fitted inhibition curve with a large enough effect; inconclusive = small, poorly fitted or top-dose-only effect, or another doubt; inactive = no such curve, though single readings can be large or run the other way. Potencies beside an inconclusive call are fits to weak or partial responses and may not hold up.
experiment: Primary qHTS for delayed death inhibitors of the malarial parasite plastid, 96 hour incubation; conditions: P. falciparum luciferase reporter growth; series mostly up to 28.7 µM; activity change, negative = inhibition: at the top concentration
Outline: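 Two-generation exposure (96 h) targets delayed-death phenotype. Reporter parasites carrying integrated firefly luciferase, in red cells at 2% hematocrit and 0.05% parasitemia final, kept at 37 C, 5% CO2; luminescence loss indicates inhibition.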
% is scaled to controls: 0 for no effect and ±100 for the full control effect; potency is read from the fitted curve at half-maximal effect.

SMILES	Potency	activity change, negative = inhibition
N=c1n(CCCOc2ccc(Br)cc2)c2ccccc2n1CC(N)=O	active: 9.28 µM	
Cc1ccc(C)c(NC(=O)Cn2cc(C(=O)C3CC3)c3ccccc32)c1		inactive: 50.7%
COc1ccc(CN2CCN(C3CCC3)CC2CCO)cc1C (stereo not drawn)		inactive: 0%
CSc1ccc(CN2CCN(C(=O)CC(C)C)CC2)cc1		inactive: -6.86%
CN(C(=O)COn1nnc2ccc(S(=O)(=O)N3CCOCC3)cc21)c1ccccc1	inconclusive: 18.5 µM [inhibitor, single point]	
C[C@H](NC(=O)CCC(=O)N1C[C@H]2C[C@H](C1)c1cccc(=O)n1C2)c1ccccc1	inconclusive: 0.0041 µM [inhibitor, full curve, poor fit]	
COc1ccc(C(=O)N/N=C(\C)CC(=O)Nc2ccc3c(c2)OCO3)cc1		inactive: 14.3%
CCC(C)NC(=O)CCn1c(-c2ccc(F)cc2)cc(C(C)=O)c1C (stereo not drawn)	inconclusive: 8.28 µM [inhibitor, partial curve, poor fit]	
CC(C)Oc1ccc(S(=O)(=O)N2CCCCC2)cc1NC(=O)C1=COCCO1	active: 8.28 µM	
CCOC(=O)Cn1c(=O)oc2cc(S(=O)(=O)NC3CCCCC3)ccc21	inconclusive: 0.522 µM [inhibitor, full curve, poor fit]	
Cn1c(CNC(=O)c2cccs2)nnc1SCC(=O)Nc1ccc(Cl)cc1	inconclusive: 14.7 µM [inhibitor, partial curve, poor fit]	
CCOCCCNC(=O)CN1CCN(S(=O)(=O)c2ccc3c(c2)CCC3)CC1	inconclusive: 18.5 µM [inhibitor, single point]	
CN1CCN(C(=O)/C=C/c2cn(-c3ccccc3)nc2-c2ccc3c(c2)OCCO3)CC1	inconclusive: 11.7 µM [inhibitor, single point]	
CCCN(CC(=O)Nc1ccccc1C)C(=O)c1ccc(S(=O)(=O)N2CCCC2)cc1	inconclusive: 18.5 µM [inhibitor, partial curve, poor fit]	
COc1cccc(NC(=S)/C(=C(\[O-])c2ccc(OC(F)F)cc2)[n+]2ccccc2)c1	inconclusive: 18.5 µM [inhibitor, single point]	
Cc1sc2nc(CSc3nnc(Cc4cccs4)n3C3CCCCC3)[nH]c(=O)c2c1C	inconclusive: 18.5 µM [inhibitor, single point]	
CC1(C)CC(=O)CC(=Nc2ccc(C(=O)O)cc2)C1	inconclusive: 5.86 µM [inhibitor, partial curve, poor fit]	
CCOc1ccc(NC(=O)c2ccc(NS(=O)(=O)c3cccs3)cc2)cc1	active: 0.828 µM	
O=C(COc1ccccc1)NCC(c1ccco1)N1CCCCC1 (stereo not drawn)	inconclusive: 16.5 µM [inhibitor, single point]	
COc1ccc([C@@H]2CC=C(C(=O)O)[C@H](c3ccccc3)N2S(=O)(=O)c2ccc(C)cc2)cc1OC	inconclusive: 11.7 µM [inhibitor, single point]	
CCCC(=O)c1c[nH]c(C(=O)N2CCOCC2)c1		inactive: 13.3%
CCOC(=O)c1c(NC(=O)c2ccc(C)cc2)sc2c1CC(C)(C)OC2	inconclusive: 10.4 µM [inhibitor, partial curve, poor fit]	
COCCn1c(-c2ccc(SC)cc2)nc2c1c(=O)[nH]c(=O)n2CC(C)C		inactive: 4.02%

Three records picked at random from those above:
SMILES	Potency	activity change, negative = inhibition
CCC(C)NC(=O)CCn1c(-c2ccc(F)cc2)cc(C(C)=O)c1C (stereo not drawn)	inconclusive: 8.28 µM [inhibitor, partial curve, poor fit]	
Cc1sc2nc(CSc3nnc(Cc4cccs4)n3C3CCCCC3)[nH]c(=O)c2c1C	inconclusive: 18.5 µM [inhibitor, single point]	
Cc1ccc(C)c(NC(=O)Cn2cc(C(=O)C3CC3)c3ccccc32)c1		inactive: 50.7%

A stretch taken from the entries so far:
SMILES	Potency	activity change, negative = inhibition
CCCN(CC(=O)Nc1ccccc1C)C(=O)c1ccc(S(=O)(=O)N2CCCC2)cc1	inconclusive: 18.5 µM [inhibitor, partial curve, poor fit]	
COc1cccc(NC(=S)/C(=C(\[O-])c2ccc(OC(F)F)cc2)[n+]2ccccc2)c1	inconclusive: 18.5 µM [inhibitor, single point]	

More structures follow.

SMILES	Potency	activity change, negative = inhibition
Cc1ccc(Oc2nnc(-c3cccs3)c3ccccc23)cc1C	inconclusive: 18.5 µM [inhibitor, single point]	
O=C(COC(=O)CNC(=O)c1ccc(-c2ccccc2)cc1)NCc1ccco1		inactive: -5.09%
COC(=O)C1=C(c2ccc(F)cc2OCc2ccccc2)C[C@@H]2CC[C@H]1N2C(=O)N1CCC(O)CC1	inconclusive: 11.7 µM [inhibitor, partial curve, poor fit]	
CC1CN(CC(=O)Nc2nc3ccccc3s2)CC(C)O1 (stereo not drawn)	inconclusive: 18.5 µM [inhibitor, single point]	
COc1ccc(S(=O)(=O)N2CCN(C(=S)NCC3CCCO3)CC2)cc1OC (stereo not drawn)		inactive: -5.09%
O=C(COC(=O)c1ccc2ncsc2c1)Nc1cccc(Cl)c1		inactive: 9.92%
CN1CCN(CCC=C2c3ccccc3Sc3ccc(S(=O)(=O)N(C)C)cc32)CC1	active: 10.7 µM	
O=C(C#Cc1ccccc1)c1cccc([N+](=O)[O-])c1		inactive: 31.4%
Cc1ccc(C(=O)NC(C(=O)OCc2cn3cc(Cl)ccc3n2)C(C)C)cc1 (stereo not drawn)	inconclusive: 11.7 µM [inhibitor, single point]	
COC1=C/C(=C/c2c(N)n3nc(CC(=O)N4CCOCC4)sc3nc2=O)C=CC1=O	inconclusive: 11.7 µM [inhibitor, single point]	
Cc1ccc(C2(C)NC(=O)N(CC(=O)Nc3cc(C)on3)C2=O)cc1 (stereo not drawn)	inconclusive: 10.4 µM [inhibitor, single point]	
CCc1ccc(N(CC(=O)NCC2CCCO2)C(=O)CCC(=O)Nc2nccs2)cc1 (stereo not drawn)		inactive: -13.5%
CCCCc1cc(=O)oc2cc(C)cc(O)c12	inconclusive: 0.0037 µM [inhibitor, full curve, poor fit]	
CCc1ccc(-n2c(O)c(/C=N/N3CCCCC3c3cccnc3)c(=O)[nH]c2=O)cc1 (stereo not drawn)	inconclusive: 1.04 µM [inhibitor, single point]	
CCCN(CC(=O)Nc1ccccc1OC)C(=O)c1ccc(=O)[nH]c1		inactive: 49.1%
Cn1c(=O)c(C(=O)Nc2cnccn2)c(O)c2ccccc21	inconclusive: 13.1 µM [inhibitor, single point]	
COc1ccccc1NC(=O)CN1CCN(CC(=O)Nc2ccc(S(N)(=O)=O)cc2)CC1		inactive: 25%
Cc1nnc2ccc(-c3cccc(NC(=O)c4ccc(Cl)nc4)c3)nn12	inconclusive: 18.5 µM [inhibitor, single point]	
Cc1ccc(S(=O)(=O)CC(=O)Nc2nc3ccccc3s2)cc1	inconclusive: 11.7 µM [inhibitor, partial curve, poor fit]	
OC(CNc1nc(C(F)(F)F)nc2ccccc12)c1ccccc1 (stereo not drawn)	inconclusive: 16.5 µM [inhibitor, single point]	
CC(C)(C)c1ccc(OCCOc2ccc(C(C)(C)C)cc2NC=O)c(NC=O)c1	active: 2.62 µM	
C[C@]12CCC(=O)C=C1CC[C@@H]1[C@H]2[C@@H](O)C[C@@]2(C)[C@H]1CC[C@]2(O)C(=O)CO	inconclusive: 6.75 µM [inhibitor, partial curve]	
O=C(CSc1nnc(-c2cccc(S(=O)(=O)N3CCOCC3)c2)n1C1CCCCCC1)NCc1ccccc1	inconclusive: 4.15 µM [inhibitor, partial curve]	

SMILES	Potency	activity change, negative = inhibition
CC(=O)Nc1ccc(SCC(=O)OCC(=O)NC(=O)NCc2ccco2)cc1	active: 9.28 µM	
Cc1nc(-c2ccccc2)sc1C1(C)CC(c2c(Cl)cccc2Cl)=NO1 (stereo not drawn)		inactive: -16%
O=C(CN1C(=O)/C(=C\c2ccc(F)cc2)Oc2ccccc21)NCc1ccco1		inactive: -27.6%
Cc1noc(C)c1COC(=O)Cc1ccc(Br)cc1		inactive: 0.0359%
COc1cc(O)c(C(=O)O)c(-c2cc(O)c(O)cc2C)c1	inconclusive: 0.0029 µM [inhibitor, full curve, poor fit]	
CN(C(=O)COC(=O)c1cn(C)c2ccccc12)C1CCCCC1		inactive: -45.5%
O=C(CSc1ccc(-c2ccco2)nn1)NCc1ccccc1	inconclusive: 18.5 µM [inhibitor, single point]	
COc1ccc(C2/C=C\CN(C(=O)c3ccc(C)cc3)CC(=O)N2Cc2ccc(F)cc2)cc1 (stereo not drawn)	inconclusive: 2.08 µM [inhibitor, partial curve, poor fit]	
NC1=NC(c2cn(-c3ccccc3)nc2-c2cccs2)n2c(nc3ccccc32)N1 (stereo not drawn)	inconclusive: 0.465 µM [inhibitor, full curve, poor fit]	
CCCCOc1ccc(C(=O)N/C(=C/c2cccc([N+](=O)[O-])c2)C(=O)O)cc1		inactive: 18.6%
Cc1ccc(C2c3[nH]c4ccccc4c3C[C@H]3C(=O)N(c4ccccc4C(=O)N4CCC[C@H]4C(=O)O)C(=O)N23)cc1 (stereo partly drawn)	active: 10.4 µM	
Cc1c(CCC(=O)N[C@@H](CCCNC(N)=O)C(=O)O)c(=O)oc2cc3oc4c(c3cc12)CCCC4	inconclusive: 11.7 µM [inhibitor, single point]	
CC(=O)C1C(=O)c2c(cccc2[N+](=O)[O-])C1=Nc1cccc(Cl)c1 (stereo not drawn)	inconclusive: 2.33 µM [inhibitor, full curve]	
CCCN1CCN(C(=O)c2c(Cl)cnn2C)CC1	inconclusive: 18.5 µM [inhibitor, single point]	
O=C(C1=C[C@@H](c2ccc(C(F)(F)F)cc2)C[C@@H](OCc2ccc(CO)cc2)O1)N1CCN(Cc2ccc3c(c2)OCO3)CC1	active: 2.33 µM	
Cc1cc(-c2c(C)[nH]n(-c3ccccc3)c2=O)n[nH]1	inconclusive: 0.586 µM [inhibitor, partial curve, poor fit]	
O=C(Nc1ccc(Cl)cn1)c1ccccc1[N+](=O)[O-]	inconclusive: 18.5 µM [inhibitor, single point]	
CC1(C)Cc2ccccc2C(NNC(=O)c2cccnc2)=N1	inconclusive: 13.1 µM [inhibitor, partial curve, poor fit]	
Cn1c(C(=O)NCCN2CCCCCC2)cc2c(=O)n(C)c3ccccc3c21		inactive: 31.6%
Cc1ccc(NC(=S)N2CC(C)OC(C)C2)cc1C (stereo not drawn)	inconclusive: 18.5 µM [inhibitor, single point]	
Fc1ccc(NC(=S)N2CCc3ccccc32)cc1	inconclusive: 18.5 µM [inhibitor, single point]	
COc1ccc(NC(=O)c2cc3cc(C)ccc3n2C)c(OC)c1	inconclusive: 8.28 µM [inhibitor, partial curve, poor fit]	
